Over roughly 33,000 sequences, “E-score (-0.5 to 0.5)” has its median near -0.015; the highest 2% begin near 0.3. The list shows a part of the results.
target: T1, Abf1 (UniProt P14164); experiment: PBM E-score (8-mer binding enrichment) (E-score (-0.5 to 0.5)); higher = stronger / more preferred TF binding; details: protein concentration: 200 nM; construct: GST-full length
T1 sequence: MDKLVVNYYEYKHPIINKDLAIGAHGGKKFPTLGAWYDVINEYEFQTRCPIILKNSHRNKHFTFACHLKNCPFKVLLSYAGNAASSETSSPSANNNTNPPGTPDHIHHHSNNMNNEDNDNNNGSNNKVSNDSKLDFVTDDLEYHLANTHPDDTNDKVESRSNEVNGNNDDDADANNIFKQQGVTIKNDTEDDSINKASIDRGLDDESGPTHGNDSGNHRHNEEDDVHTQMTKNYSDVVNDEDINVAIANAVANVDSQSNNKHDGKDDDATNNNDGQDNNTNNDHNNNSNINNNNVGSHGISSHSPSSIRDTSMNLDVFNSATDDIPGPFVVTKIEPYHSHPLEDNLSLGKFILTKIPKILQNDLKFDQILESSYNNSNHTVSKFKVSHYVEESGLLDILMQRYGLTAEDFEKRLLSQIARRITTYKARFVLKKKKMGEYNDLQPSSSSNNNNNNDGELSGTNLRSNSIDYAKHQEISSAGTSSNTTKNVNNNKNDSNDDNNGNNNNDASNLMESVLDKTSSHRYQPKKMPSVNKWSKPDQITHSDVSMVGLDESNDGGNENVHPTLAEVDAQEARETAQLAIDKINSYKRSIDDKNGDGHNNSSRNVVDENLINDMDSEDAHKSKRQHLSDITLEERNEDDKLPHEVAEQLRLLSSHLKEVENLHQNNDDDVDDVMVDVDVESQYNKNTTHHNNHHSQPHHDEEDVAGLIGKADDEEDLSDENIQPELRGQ
Method: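 Universal 'all 10-mer' protein binding microarrays (Agilent AMADID 015681) probed with GST-tagged S. cerevisiae TFs (full-length or DBD) made by in vitro transcription/translation (PURExpress), about 100-200 nM. Bound TF was detected with fluorescent anti-GST. Each ungapped 8-mer (which stands for itself and its reverse complement) is scored by the PBM enrichment score (E-score), a modified Wilcoxon-Mann-Whitney statistic from -0.5 to +0.5, computed with the Universal PBM Analysis Suite. Scale: above 0.35 generally sequence-specific binding.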

Sequence	PBM E-score
CTGAGGCC	-0.204
TGCTAGAA	0.144
GTCTCCTA	-0.133
GATCGGAA	-0.208
ATTAACTG	0.0612
GATAATGC	0.146
ACAAAGAA	0.126
GAATAAGC	-0.16
AATCAGCT	0.0593
CGTGACGC	0.152
CAAACCCC	-0.197
AACAGCGT	-0.0133
TCACTCGA	0.215
CGAGGCAA	-0.0834
CGAATAAA	0.106
AGCCTTGA	-0.179
ATCGGTAA	0.0617
AGGCACAG	-0.192
CAGACACA	-0.0358
AGTTGCTA	-0.0289
CACGGGCG	0.0264
CTAGGGTC	-0.187
ACAGACAA	0.193
CCTACTTA	-0.0458
GCTGGCCA	-0.118

Sequence	PBM E-score
GAGCTCAC	-0.152
CAATGTGA	0.143
ATCTACAG	0.0367
AGACGGGC	0.0196
AAGTCTCT	-0.189
TATGCGGA	0.0153
ACGGATTC	-0.0334
AGCTCGGA	-0.0875
CAGGGACA	0.0375
GTATTTCA	0.104
CGCACGCA	-0.177
CACCCCAC	-0.033
TAGGAAGA	-0.187
CGTTGTTA	0.208
GAGGCGCC	0.107
CAACTACG	-0.0494
CGAGTACG	-0.0179
AGTGTTGG	-0.0795
CGCTGGGA	-0.195
AAATATCG	0.271
ACCATCCT	-0.0137
TCTGTAAA	-0.0311
ACCAAGGT	-0.0774
GGATACGA	0.28
ATAAGCCC	-0.247

7 records drawn at random from those above, as already listed:
Sequence	PBM E-score
GGATACGA	0.28
TATGCGGA	0.0153
ATAAGCCC	-0.247
ACGGATTC	-0.0334
TCTGTAAA	-0.0311
AGTGTTGG	-0.0795
AAATATCG	0.271

Following part.

Sequence	PBM E-score
ATATACGG	0.339
CCCCAAAA	-0.0266
CATCTAGG	-0.0153
CCTAATAA	0.00019
CTTCGTAA	0.161
ATGATAAA	0.406
ACTCTTTC	-0.0974
CCTTCTGA	-0.194
ATCTAGAA	-0.00499
AAAACCCA	0.131
GCTCGCAA	0.11
ACTGGGTG	-0.191
CCTCAGGA	-0.029
ACTCGATG	0.131
CAGGCCTG	-0.184
CGCAGGGA	-0.223
AGTGTAGA	-0.0996
CGCAAGCG	-0.158
GGTCGGAC	-0.0599
TAGATCTA	0.0736
ATATCAAA	0.0352
AGCCGTTC	-0.0626
TACCCCTA	-0.0769
AAGTCGTC	0.112
CAACACAC	0.0624

Sequence	PBM E-score
CTGCATTC	-0.0482
AAAAAGGG	-0.0754
AGGGAAAA	0.01
AGAGGGTC	-0.274
AACTGGGA	-0.0619
GCTACCCA	-0.122
GACAGAGC	-0.0294
ATACAAAG	0.133
CACCTGTA	-0.172
GGAGGCAC	-0.183
ACTTACCG	-0.0584
AATCATTC	0.24
ATCGGTGC	-0.0451
AACTCGCC	-0.085
ACTAGACC	0.0436
ACACAACG	0.063
ATCGCTAA	0.28
CGAGGGCA	-0.0824
GCACACGA	0.303
CTGCTAAG	-0.323
AGACCGAA	-0.0106
GAATAGAA	0.093
ACGTACGG	0.328
GATATCGC	0.341
ACGCATGG	-0.155

Sequence	PBM E-score
AAGGCATA	-0.0159
AAGGCAGT	0.0202
GTGGGTCA	-0.0817
AAGCCGTA	0.193
CATTGAAA	0.168
CCCATGGA	-0.19
ATACATGA	-0.00552
CGCCAAGA	-0.0926
CAATTCTA	-0.0487
ACCTGCAA	-0.133
AGCTGTAC	-0.345
ATTCATGG	-0.165
GCCGCTAA	-0.0689
TTATTGAA	0.115
CGGTGGCA	-0.0877
AGATGTGC	-0.159
AAAACCAT	-0.0494
CGACCTTA	0.117
AAGTTCTA	-0.0163
AATAGGTA	0.106
CCGCCTCC	-0.2
AGCACCAG	-0.0249
GCACCACA	-0.0375
TAACGAGA	0.295
CCGATGTC	0.159

Sequence	PBM E-score
CAGCTAAC	-0.199
TCATCTCA	0.235
GGAATGCC	-0.154
AACTTACT	0.0556
ACGCCAGG	-0.192
ATATCTTA	0.246
ACACTGGG	-0.134
CTATTGTA	0.118
AAAGGGAG	-0.163
ACCTAGGA	0.00148
GCCGGCAA	-0.135
GAGTCACC	-0.151
CGCTTGTA	-0.0156
ATAATTTA	0.211
ACGTCCAG	-0.0289
AGAAGACT	-0.0993
AATACTCT	0.0423
ATCCCTCA	-0.0454
AGTGCGAA	-0.196
CTAGCCAA	-0.0616
CATTTGCG	-0.00415
ATTACGGC	0.184
GTTGGAAA	0.0804
GCTCATTA	0.0158
CGTACCCA	0.0561

Sequence	PBM E-score
TACGTTAA	0.132
AGAATCTC	-0.0695
ATACCTTG	0.0637
AAACAGAG	-0.0224
CCGGCCCG	-0.279
GGTATACA	-0.025
ATAGGAAC	0.108
AGGCATAT	0.1
GTGCTATA	0.0607
CTTCAAGC	-0.0226
GAGCCCTC	-0.173
ACTGCAGG	-0.126
GGGTTCCA	-0.176
ACGATTGA	0.137
CCACCCGA	-0.0446
CGACCGTA	0.151
CAGAGTTA	0.0296
CGGATGTC	0.0511
ACGGAAGT	0.143
AACGTTCT	0.125
ATGCCATA	-0.00719
AGAGGGCT	-0.283
CCGTCACC	0.112
ACATCAGG	-0.00197
ATTTAGGG	0.184

Sequence	PBM E-score
AGAATAGA	0.0064
ACCAGCAT	-0.218
ACGCATTA	-0.00512
AGGATACT	-0.00263
AAGGTAAC	0.155
ACTTGCAA	0.112
TGGGCACA	-0.0575
ATGGGCAA	-0.201
GTGTGAAC	-0.0296
AACCCTGT	-0.0611
ATTGTTTG	0.0598
TCAGTTCA	0.157
GGGAGAAC	-0.163
TAGATCGA	-0.0229
AGCCCTTG	-0.184
GATTGCTA	-0.0668
GATCGGCA	-0.139
CACTATCC	0.137
CCGATGGC	-0.271
AAAAAAGC	-0.103
AATGGTCA	0.173
GCTGAATA	-0.136
CGCGACCC	0.135
CAATTCTG	-0.232
TGCTAAAA	0.0819

Sequence	PBM E-score
TCGACAGA	-0.218
AGAAGTGA	0.243
ATCTTAGC	-0.126
AACACCAT	-0.106
ACAAAAAT	0.128
CCGAAGGC	-0.0649
GATAGCGC	0.13
AGATGGCC	-0.053
ACTACTCG	-0.0323
CGGCGTAC	0.136
ATAACGCG	0.118
AACGCAAA	0.0846
GCATTAAA	0.117
CTTCTAGC	-0.185
CATGGAAC	-0.0557
GGATGAAA	0.128
CTCAAGAA	-0.131
CCACTGCC	-0.161
AGAGTACC	0.107
ACTAAGGG	0.0508
AAGCCGCC	-0.304
AGCAGTTA	0.0105
AATACCTC	0.0736
CTTCTCTA	-0.175
TCTTCTAA	-0.0284

Sequence	PBM E-score
ACGCAAGC	0.184
AGAACCAT	0.0311
TAATTTAA	0.0848
GATCTGCA	0.0807
CATAGTCC	-0.0117
ACGCCGCT	-0.163
CACCGTGA	0.227
ACCCGCAG	-0.0484
AAACCTAC	0.0111
AACATATT	0.155
GGTCATTA	0.134
ATGATCAC	0.335
ATTTCAGA	0.123
CGCAACGA	0.0407
AACTTCGG	0.0303
GTTTCATA	-0.144
CAGATGCG	0.00587
TTCGGCAA	0.0515
CTCAAAAA	0.00747
AAACTAGG	-0.107
GCCCGTAC	0.215
CCACAAAC	0.0774
AGCCCTCA	-0.11
GTTGAACA	-0.00998
GGTCCCCA	-0.124

Looked up above:
For PBM E-score, ATATCAAA shows 0.0352
For PBM E-score, CGCCAAGA shows -0.0926
For PBM E-score, GCTCATTA shows 0.0158
For PBM E-score, AAGCCGTA shows 0.193
For PBM E-score, AAGGCATA shows -0.0159
For PBM E-score, ACCCGCAG shows -0.0484
For PBM E-score, ATCGGTAA shows 0.0617

The list goes on.

Sequence	PBM E-score
CGTTCCAA	0.148
TAAGAAAA	0.0217
GGTCTGCA	-0.218
ATTTCGGG	-0.114
AAAGGGAC	-0.109
CGCTACGC	-0.106
ACGCTCAT	0.121
CTACGATC	0.195
ACATTTAC	0.117
CGGCGTAG	0.107
ACAATTGC	-0.12
ACCGGGTC	-0.0376
ACTGGTAT	0.0243
CTTTATAA	-0.052
ACTCGACA	0.103
CTCTGTCA	0.0896
CTAAAGGC	-0.0574
CGTTTTTA	0.236
GGGCATAC	-0.162
CCTAGTGA	0.123
ATTCAGAC	0.0408
GGTCTGAC	-0.127
CTGTCCAA	-0.0401
CTTACTTC	0.0316
CGAAAGTA	-0.0497

As a short view, some entries already given.
Sequence	PBM E-score
CGAGGCAA	-0.0834
CGAATAAA	0.106
AGCCTTGA	-0.179

Following part.

Sequence	PBM E-score
GACTCGGA	-0.127
CCATTTCG	-0.0163
GGGCGCCA	-0.0195
CCACCCTA	-0.201
CCATTTAG	-0.118
ATCCTGGG	-0.103
AACATAAC	0.128
CCGATTAG	0.00495
ACGGAAGG	-0.147
CTCGGTTA	-0.0208
TCTTGTAA	0.0644
CACCTGGA	-0.038
TCAAGCCA	-0.127
CTCCGGGC	-0.218
CCCCGAGC	-0.147
CTATCAAA	0.121
GAAAGGTA	0.211
GCGTGCCC	-0.273
AGATGCTG	-0.13
CCTACGAG	0.163
CCTAGAGA	-0.024
GATGCTCC	-0.0364
GCAGCTGC	-0.198
TCGGCGCA	-0.103
AAAAACCC	0.0017

Sequence	PBM E-score
CTAGTGTA	-0.0115
ATAGGTGA	0.189
CTACTCGC	-0.0849
TGCTGCAA	0.0694
CCGACCAG	-0.242
AAGCCAGG	-0.0949
ATCCCCGC	-0.211
GATTATAC	0.231
CTGGTGCA	-0.124
CATGACTC	-0.16
CCGGAACC	-0.181
CAGAGCAA	-0.132
CTGTGATC	0.0861
ACCGGAAA	-0.0557
GGATTTAA	0.0848
TCCCCCAA	-0.312
TGGCGGAA	-0.105
GCCCATAC	-0.0631
AAATCTAT	0.216
TATAGCAA	-0.0649
CAGAAGTC	-0.156
CTTTAATC	0.00929
GACTGTCA	0.0864
CAAGGGAA	-0.0266
CATACGTC	0.0233

Sequence	PBM E-score
GTCTTAAA	0.119
ACCGCGCC	-0.0845
AGTGAACC	-0.00877
CACGAAAG	0.272
CAGCCAGC	-0.303
ATAAGACC	-0.262
GGCGTCCC	-0.255
ATAATCTA	0.115
CGCCCTAA	-0.126
GACACCAA	-0.0667
CTGTCCCC	-0.245
ACCGGCCT	-0.0588
CGCCGGAA	-0.133
AACCTTGA	-0.0403
AACGAGAG	0.0599
TAGAGCTA	-0.192
CTTTGTTC	-0.106
GGCGCCTA	0.0258
AATACGGA	0.236

Reference: the supplement of paper PMC3334620
